# In paper PMC11237615:
# Amino acid sequences for entries named in this document (tags omitted). A change or cut given only in a name is not applied to a line headed by its entry.
# UniProt P19474: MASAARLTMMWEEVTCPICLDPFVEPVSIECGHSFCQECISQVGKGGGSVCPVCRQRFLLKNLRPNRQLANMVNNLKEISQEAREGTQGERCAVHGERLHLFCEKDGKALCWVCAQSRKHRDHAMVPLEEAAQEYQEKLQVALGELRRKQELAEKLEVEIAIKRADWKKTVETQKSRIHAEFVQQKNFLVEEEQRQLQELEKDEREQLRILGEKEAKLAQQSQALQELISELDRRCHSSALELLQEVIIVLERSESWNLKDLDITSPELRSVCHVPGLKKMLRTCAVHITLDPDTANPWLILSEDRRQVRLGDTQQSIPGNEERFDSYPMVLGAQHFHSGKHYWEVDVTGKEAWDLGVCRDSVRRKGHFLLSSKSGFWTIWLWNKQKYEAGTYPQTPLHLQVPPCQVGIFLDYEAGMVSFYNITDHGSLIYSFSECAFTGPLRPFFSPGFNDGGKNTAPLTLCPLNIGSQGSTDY
# No constants are given. Whether binding was seen depends on the method and setting. Binding seen in cells or lysates may run through a third protein. Some results given as binding are weak or reduced against the parent protein; the word gives no strength.
# Molecular target: T1, hepatocyte nuclear factor 4α (human (endogenous in HepG2)) (UniProt P41235)
# T1 sequence: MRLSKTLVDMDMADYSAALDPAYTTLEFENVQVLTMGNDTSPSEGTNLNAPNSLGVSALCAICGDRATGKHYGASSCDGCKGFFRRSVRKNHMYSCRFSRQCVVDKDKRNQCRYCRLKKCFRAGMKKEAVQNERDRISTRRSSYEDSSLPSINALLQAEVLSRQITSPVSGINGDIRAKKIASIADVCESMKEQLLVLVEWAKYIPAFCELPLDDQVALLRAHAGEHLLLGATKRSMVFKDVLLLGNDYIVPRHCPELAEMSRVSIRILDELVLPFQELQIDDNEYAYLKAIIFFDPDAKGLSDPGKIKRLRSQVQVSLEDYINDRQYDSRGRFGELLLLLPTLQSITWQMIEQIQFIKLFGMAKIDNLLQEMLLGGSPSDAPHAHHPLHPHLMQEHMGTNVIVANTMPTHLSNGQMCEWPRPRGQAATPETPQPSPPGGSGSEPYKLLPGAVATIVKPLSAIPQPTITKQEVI
# Test: co-IP; HepG2 cells transfected with the Myc-TRIM21 constructs (Fig. 6A: with pUb-HA, MG132 20 µM for 5 h before harvest); Pierce IP lysis buffer; lysates incubated with the HNF4α antibody at 4°C overnight, protein A-agarose, three washes with cold PBS; Western blot
row,Substance,binding
1,Myc-TRIM21 RING domain deletion mutant (from UniProt P19474 57-475) (domain or fragment),binds
2,"Myc-TRIM21 (tripartite motif-containing protein 21, wild type) (from UniProt P19474 1-475) (enzyme)",binds
3,Myc-TRIM21 PRY-SPRY deletion mutant (from UniProt P19474 2-285) (domain or fragment),no binding
